The values below come from article PMC7862700.

Only a part is listed here, and it is no random draw. For part of these data: At the low end of the ranking the order means little. The list shows a part of the results. For part of these data: Construct or isoform of the protein are uncertain.

Holding throughout (assay): DAPPL (digital affinity profiling via proximity ligation, sequencing)
Holding throughout (conditions): 10 mM Tris-HCl pH 7.5, 50 mM NaCl, 1 mM DTT, 4% glycerol, room temperature, 30 min; GST-TFs on glutathione beads, 16-mer random dsDNA library, 0.1% …; high values mean tight binding; double strand, one strand shown; scale: fold enrichment (6-mer frequency, TF over GST control)

The target of test [1] is T1, GABPA (UniProt Q06546).
T1 sequence: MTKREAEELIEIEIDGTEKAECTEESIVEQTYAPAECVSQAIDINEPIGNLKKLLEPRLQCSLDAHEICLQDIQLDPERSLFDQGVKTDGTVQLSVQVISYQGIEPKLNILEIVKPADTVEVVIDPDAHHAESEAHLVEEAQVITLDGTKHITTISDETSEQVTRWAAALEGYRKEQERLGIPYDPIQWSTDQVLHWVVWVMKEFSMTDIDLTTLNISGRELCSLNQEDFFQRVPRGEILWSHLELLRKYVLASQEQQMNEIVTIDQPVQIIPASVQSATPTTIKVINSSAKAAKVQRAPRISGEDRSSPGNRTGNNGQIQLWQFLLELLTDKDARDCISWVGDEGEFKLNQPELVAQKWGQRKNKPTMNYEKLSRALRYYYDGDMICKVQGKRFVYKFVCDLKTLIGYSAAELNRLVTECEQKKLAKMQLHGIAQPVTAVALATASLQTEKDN

Test [2] concerns the target T2, ETS1 (UniProt P14921).
T2 sequence: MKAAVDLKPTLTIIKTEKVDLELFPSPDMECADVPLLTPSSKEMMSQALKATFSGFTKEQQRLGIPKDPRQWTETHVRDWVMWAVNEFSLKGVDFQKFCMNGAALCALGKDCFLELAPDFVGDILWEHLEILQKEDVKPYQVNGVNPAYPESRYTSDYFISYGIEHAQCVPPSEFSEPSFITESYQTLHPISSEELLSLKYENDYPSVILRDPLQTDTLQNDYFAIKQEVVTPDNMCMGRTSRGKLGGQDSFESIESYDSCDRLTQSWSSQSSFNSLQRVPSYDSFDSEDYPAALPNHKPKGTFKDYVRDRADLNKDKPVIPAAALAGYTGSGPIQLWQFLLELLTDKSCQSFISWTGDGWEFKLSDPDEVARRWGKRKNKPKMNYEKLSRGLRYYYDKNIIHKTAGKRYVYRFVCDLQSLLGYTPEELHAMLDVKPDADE

Test [3] deals with T3, SPDEF (UniProt O95238).
T3 sequence: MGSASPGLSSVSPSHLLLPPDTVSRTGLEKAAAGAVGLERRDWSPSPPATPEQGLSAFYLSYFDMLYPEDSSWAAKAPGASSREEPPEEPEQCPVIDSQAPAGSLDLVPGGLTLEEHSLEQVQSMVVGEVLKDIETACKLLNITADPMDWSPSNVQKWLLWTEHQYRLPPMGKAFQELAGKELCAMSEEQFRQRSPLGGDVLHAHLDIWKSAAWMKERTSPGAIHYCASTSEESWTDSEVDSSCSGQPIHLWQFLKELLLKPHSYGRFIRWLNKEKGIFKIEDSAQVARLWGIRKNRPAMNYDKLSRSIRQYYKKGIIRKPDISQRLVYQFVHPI

Consider TAAGGA, for which the binding signal came out at 0.842 in test [1], 0.917 in test [2] and 0.931 in test [3].
Regarding TCGCGG, the binding signal in test [1] was 1.07; in test [2], 1.02; in test [3], 1.01.
In the case of GTCATT, the results for the binding signal in test [1], in test [2] and in test [3] were 0.999, 0.965 and 0.848, respectively.
Taken in the same sequence, the figures for TAGCGT were 0.977, 0.939 and 0.971.
For the sequence TCAGAC, the binding signal in test [1] turned out to be 0.946; in test [2], 0.888; in test [3] it was 0.879.
Taken in the same sequence, the figures for TGCAGA were 0.977, 1.04 and 1.
Taken in the same sequence, the figures for TTACCA were 1.04, 1.12 and 1.09.
Taken in the same sequence, the figures for GTCCGG were 0.876, 0.85 and 1.18.
GTACTA: the binding signal in test [1] amounted to 1.12; in test [2], 1.07; in test [3], 1.1.
As to GCCATT, the values for the binding signal in test [1], in test [2] and in test [3] were 0.962, 0.982 and 0.834, respectively.
For the sequence TAGGTA, the binding signal in test [1] is 0.993; in test [2] it was 0.972; in test [3], 1.02.
For GCACAC, the binding signal was 0.967 in test [1], 0.98 in test [2] and 0.944 in test [3].
For the sequence TTAATA, the binding signal in test [1] came to 1.18; in test [2], 1.2; in test [3], 1.14.
GTGCCG: the results for the binding signal in test [1], in test [2] and in test [3] were 0.877, 0.851 and 0.89, respectively.
In the case of ACGAAG, the binding signal in test [1] worked out at 0.952; in test [2] it was 0.923; in test [3] it was 0.851.
As to ACATGA, the binding signal in test [1] turned out to be 0.942; in test [2], 0.968; in test [3], 0.921.
Turning to GGCTGC, the binding signal is 0.983 in test [1], 0.927 in test [2] and 0.943 in test [3].
Consider TGTCAG, for which the binding signal in test [1] was 0.898; in test [2], 0.899; in test [3] it was 0.843.
As to CATAGC, the figures for the binding signal in test [1], in test [2] and in test [3] were 1.02, 0.964 and 0.918, respectively.
On to GAAGAT, for which the binding signal came to 0.911 in test [1], 0.839 in test [2] and 0.83 in test [3].
In the case of GCCTGT, the binding signal turned out to be 0.858 in test [1], 1.05 in test [2] and 0.914 in test [3].
In the case of TGTAGA, the binding signal in test [1] was found to be 0.897; in test [2], 0.955; in test [3], 0.946.
GATCAC: the binding signal stood at 0.968 in test [1], 1.01 in test [2] and 1 in test [3].
For the sequence ACGCCA, the binding signal in test [1] is 0.872; in test [2], 0.931; in test [3], 0.85.
On to CATAAG, for which the results for the binding signal in test [1], in test [2] and in test [3] were 0.902, 0.883 and 0.914, respectively.
Taken in the same sequence, the figures for AGTAAC were 0.861, 0.94 and 0.99.
Take CCGACA: the binding signal is 1.11 in test [1], 1.19 in test [2] and 1.27 in test [3].
GTTCGC: the binding signal in test [1] stood at 1.03; in test [2], 1.03; in test [3] it was 0.954.
In the case of CGCGCA, the figures for the binding signal in test [1], in test [2] and in test [3] were 0.95, 0.996 and 0.948, respectively.
Taken in the same sequence, the figures for GTACCT were 1.26, 1.15 and 1.27.
As to CTAGCG, the binding signal was 1.32 in test [1], 1.08 in test [2] and 1.1 in test [3].
In the case of ACGTCA, the binding signal was 0.99 in test [1], 0.959 in test [2] and 0.907 in test [3].
In the case of AGTGTA, the binding signal was found to be 0.911 in test [1], 0.941 in test [2] and 0.982 in test [3].
Taken in the same sequence, the figures for GCTAGG were 0.933, 1.04 and 0.921.
Consider CGCAAA, for which the values for the binding signal in test [1], in test [2] and in test [3] were 0.978, 1.06 and 0.991, respectively.
Turning to CAGCGC, the binding signal in test [1] stood at 1.01; in test [2], 0.926; in test [3], 0.837.
On to TCCAGC, for which the binding signal in test [1] was 0.97; in test [2] it was 0.937; in test [3], 0.99.
Regarding AGTACC, the values for the binding signal in test [1], in test [2] and in test [3] were 0.869, 0.926 and 1.01, respectively.
TGGAAG: the binding signal was determined as 0.997 in test [1], 0.971 in test [2] and 0.913 in test [3].
As for CCAACG, the binding signal worked out at 1.09 in test [1], 1.1 in test [2] and 1.13 in test [3].
Regarding CGCACC, the binding signal turned out to be 1.03 in test [1], 1.01 in test [2] and 0.961 in test [3].
For GCGCAC, in that order: 0.89, 0.851 and 0.834.
Take TGAAGA: the binding signal in test [1] stood at 0.994; in test [2], 0.885; in test [3] it was 0.99.
Take GCGGCT: the binding signal in test [1] was found to be 0.86; in test [2] it was 0.976; in test [3] it was 0.926.
Consider GGATTA, for which the binding signal in test [1] worked out at 0.909; in test [2], 0.841; in test [3], 1.02.
Take GATAGT: the binding signal is 0.889 in test [1], 0.807 in test [2] and 0.779 in test [3].
Take GCGAAA: the figures for the binding signal in test [1], in test [2] and in test [3] were 0.859, 0.965 and 0.904, respectively.
AGGGCT: the binding signal in test [1] is 1.05; in test [2], 1.09; in test [3] it was 0.958.
As to GCGCGT, the binding signal in test [1] stood at 0.78; in test [2], 0.753; in test [3], 0.799.
Turning to CCGACT, the figures for the binding signal in test [1], in test [2] and in test [3] were 1.48, 1.36 and 1.45, respectively.
Taken in the same sequence, the figures for GTGTAC were 0.791, 0.9 and 0.964.
Turning to CTGGGG, the binding signal in test [1] stood at 0.796; in test [2] it was 0.851; in test [3], 0.828.
In the case of GTTTCA, the binding signal was 1.35 in test [1], 1.3 in test [2] and 1.22 in test [3].
As to GCGATT, the binding signal worked out at 0.922 in test [1], 0.989 in test [2] and 0.838 in test [3].
For AATCGT, in that order: 0.884, 0.823 and 0.883.
TCCGAG: the binding signal in test [1] worked out at 0.924; in test [2], 0.923; in test [3], 0.955.
With ACGGTT, the binding signal in test [1] is 0.974; in test [2] it was 0.953; in test [3], 1.04.
For AGCACG, in that order: 0.917, 0.946 and 0.924.
Consider GTCCTC, for which the binding signal in test [1] was determined as 1.17; in test [2], 1.26; in test [3], 1.19.
For GTCTAG, the binding signal worked out at 0.878 in test [1], 0.862 in test [2] and 0.723 in test [3].
